Measurements reported in PubChem BioAssay AID1508597 (Cure First, 2020).
Screen: 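Knock-downs altering ovarian cancer cell survival with or without PARP inhibitor rucaparib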 (primary screen). Cell system: human ovarian carcinoma lines grown from tumours: OCI-P5x (papillary serous) and OCI-C5x (clear cell). Reagent: siRNA pool against human genes, 1.25 pmol siRNA per well. Time to read-out: 72 h or 96 h, depending on the cell culture. Treatment: rucaparib 20 µM (about IC30) or vehicle, present until read-out. Rucaparib or vehicle: Vehicle. Cell line: OCI-P5x (serous). Detection: 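ATP luminescence measured at 72 or 96 h according to the culture, then normalised and expressed as percent viability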. Direction: viability, normalised: higher = more viable cells remaining. Rule for the call: 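Active when normalised viability falls below 80 percent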. Meaning of the calls: active = viability under 80%; inactive = viability 80% or more.
This is a random part of the about 2,100 reagents, under one of the conditions tested. 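Calls flag viability under 80% in either arm, not effects specific to rucaparib; the reference for percent is not stated.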 Reagent sequences are not shown. Not stated in the record: the 100% reference.

STC1 (stanniocalcin 1), technical replicate 1 | viability, normalised (%): 96.6; activity call: inactive
STC1 (stanniocalcin 1), technical replicate 2 | viability, normalised (%): 111; activity call: inactive
STC1 (stanniocalcin 1), technical replicate 3 | viability, normalised (%): 95.7; activity call: inactive
STK11 (serine/threonine kinase 11), technical replicate 1 | viability, normalised (%): 51.6; activity call: active
STK11 (serine/threonine kinase 11), technical replicate 2 | viability, normalised (%): 55.5; activity call: active
STK11 (serine/threonine kinase 11), technical replicate 3 | viability, normalised (%): 59.3; activity call: active
RNF20 (ring finger protein 20), technical replicate 1 | viability, normalised (%): 74.6; activity call: active
RNF20 (ring finger protein 20), technical replicate 2 | viability, normalised (%): 80; activity call: active
RNF20 (ring finger protein 20), technical replicate 3 | viability, normalised (%): 99.4; activity call: inactive
MKNK1 (MAPK interacting serine/threonine kinase 1), technical replicate 1 | viability, normalised (%): 101; activity call: inactive
MKNK1 (MAPK interacting serine/threonine kinase 1), technical replicate 2 | viability, normalised (%): 90.9; activity call: inactive
MKNK1 (MAPK interacting serine/threonine kinase 1), technical replicate 3 | viability, normalised (%): 104; activity call: inactive
MAP3K5 (mitogen-activated protein kinase kinase kinase 5), technical replicate 1 | viability, normalised (%): 77.8; activity call: active
MAP3K5 (mitogen-activated protein kinase kinase kinase 5), technical replicate 2 | viability, normalised (%): 96; activity call: inactive
MAP3K5 (mitogen-activated protein kinase kinase kinase 5), technical replicate 3 | viability, normalised (%): 69; activity call: active
SOX9 (SRY-box transcription factor 9), technical replicate 1 | viability, normalised (%): 58.5; activity call: active
SOX9 (SRY-box transcription factor 9), technical replicate 2 | viability, normalised (%): 48; activity call: active
SOX9 (SRY-box transcription factor 9), technical replicate 3 | viability, normalised (%): 69.4; activity call: active
CLDN23 (claudin 23), technical replicate 1 | viability, normalised (%): 52.7; activity call: active
CLDN23 (claudin 23), technical replicate 2 | viability, normalised (%): 70.6; activity call: active
CLDN23 (claudin 23), technical replicate 3 | viability, normalised (%): 72.6; activity call: active

A run of entries of the results above, as a working copy:
STK11 (serine/threonine kinase 11), technical replicate 2 | viability, normalised (%): 55.5; activity call: active
STK11 (serine/threonine kinase 11), technical replicate 3 | viability, normalised (%): 59.3; activity call: active
RNF20 (ring finger protein 20), technical replicate 1 | viability, normalised (%): 74.6; activity call: active
